In publication doi:10.1101/2022.12.21.521423 (bioRxiv, 2022) one finds binding data, which are given here for 13 molecules.

By UniProt entry, the sequences of proteins in these tests, tags left out. Residues count along the entry.
UniProt Q96QE4, residues 28-905: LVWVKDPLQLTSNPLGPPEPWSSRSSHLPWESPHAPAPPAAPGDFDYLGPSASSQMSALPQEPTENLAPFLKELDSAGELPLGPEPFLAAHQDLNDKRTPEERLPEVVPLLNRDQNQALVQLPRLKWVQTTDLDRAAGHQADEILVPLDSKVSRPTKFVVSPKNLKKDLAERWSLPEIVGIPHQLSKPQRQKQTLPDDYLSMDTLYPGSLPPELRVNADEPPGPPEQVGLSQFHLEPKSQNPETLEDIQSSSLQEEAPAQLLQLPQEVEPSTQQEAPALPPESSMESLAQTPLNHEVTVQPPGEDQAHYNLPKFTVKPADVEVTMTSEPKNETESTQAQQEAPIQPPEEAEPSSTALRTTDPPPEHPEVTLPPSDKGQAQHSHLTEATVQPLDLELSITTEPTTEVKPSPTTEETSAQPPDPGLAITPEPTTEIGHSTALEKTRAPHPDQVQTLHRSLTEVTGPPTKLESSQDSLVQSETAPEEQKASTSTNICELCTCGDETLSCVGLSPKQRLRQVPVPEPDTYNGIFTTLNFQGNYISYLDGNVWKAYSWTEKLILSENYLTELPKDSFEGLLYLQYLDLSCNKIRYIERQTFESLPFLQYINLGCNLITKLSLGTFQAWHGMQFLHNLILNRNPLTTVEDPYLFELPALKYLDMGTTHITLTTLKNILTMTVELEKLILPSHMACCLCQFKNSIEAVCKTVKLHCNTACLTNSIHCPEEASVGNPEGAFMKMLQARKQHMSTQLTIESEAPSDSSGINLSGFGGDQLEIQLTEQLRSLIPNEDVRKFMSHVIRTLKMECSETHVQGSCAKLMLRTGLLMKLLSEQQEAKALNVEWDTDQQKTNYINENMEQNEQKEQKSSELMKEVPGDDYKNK
UniProt P55283, residues 170-734: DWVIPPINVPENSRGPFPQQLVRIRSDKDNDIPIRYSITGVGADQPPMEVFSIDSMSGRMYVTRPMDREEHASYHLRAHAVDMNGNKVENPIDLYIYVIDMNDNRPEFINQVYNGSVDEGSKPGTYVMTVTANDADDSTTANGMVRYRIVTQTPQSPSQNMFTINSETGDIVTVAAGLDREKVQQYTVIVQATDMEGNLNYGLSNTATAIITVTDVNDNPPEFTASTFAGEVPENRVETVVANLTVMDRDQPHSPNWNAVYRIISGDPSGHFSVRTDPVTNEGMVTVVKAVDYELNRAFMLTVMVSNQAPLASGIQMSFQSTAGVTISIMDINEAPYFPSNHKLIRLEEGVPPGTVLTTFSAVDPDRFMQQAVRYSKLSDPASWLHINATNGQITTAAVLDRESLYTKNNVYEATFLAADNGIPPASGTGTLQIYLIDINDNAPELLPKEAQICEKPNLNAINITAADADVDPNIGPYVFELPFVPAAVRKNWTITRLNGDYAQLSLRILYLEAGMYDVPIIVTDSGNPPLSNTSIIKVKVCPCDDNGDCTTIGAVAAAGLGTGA
UniProt Q8N608, residues 56-796: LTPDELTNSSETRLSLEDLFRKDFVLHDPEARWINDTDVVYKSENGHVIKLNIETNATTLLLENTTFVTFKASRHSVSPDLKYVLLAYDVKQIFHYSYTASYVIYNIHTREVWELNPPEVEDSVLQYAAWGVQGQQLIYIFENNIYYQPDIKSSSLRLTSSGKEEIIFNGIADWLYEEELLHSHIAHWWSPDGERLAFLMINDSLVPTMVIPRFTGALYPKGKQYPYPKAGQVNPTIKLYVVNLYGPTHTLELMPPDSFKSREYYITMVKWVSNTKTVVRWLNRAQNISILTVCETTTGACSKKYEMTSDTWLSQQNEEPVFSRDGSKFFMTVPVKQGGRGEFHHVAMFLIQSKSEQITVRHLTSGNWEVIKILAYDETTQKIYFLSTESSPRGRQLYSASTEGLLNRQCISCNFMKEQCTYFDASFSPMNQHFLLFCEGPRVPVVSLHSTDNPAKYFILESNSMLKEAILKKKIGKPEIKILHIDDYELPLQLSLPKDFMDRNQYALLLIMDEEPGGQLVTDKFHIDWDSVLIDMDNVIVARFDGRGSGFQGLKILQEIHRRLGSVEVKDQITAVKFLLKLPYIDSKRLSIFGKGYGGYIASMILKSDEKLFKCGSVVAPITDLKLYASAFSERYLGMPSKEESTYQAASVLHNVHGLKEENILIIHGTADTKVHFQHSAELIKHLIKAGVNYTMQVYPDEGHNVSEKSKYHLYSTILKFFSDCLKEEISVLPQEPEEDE
UniProt O75325, residues 19-630: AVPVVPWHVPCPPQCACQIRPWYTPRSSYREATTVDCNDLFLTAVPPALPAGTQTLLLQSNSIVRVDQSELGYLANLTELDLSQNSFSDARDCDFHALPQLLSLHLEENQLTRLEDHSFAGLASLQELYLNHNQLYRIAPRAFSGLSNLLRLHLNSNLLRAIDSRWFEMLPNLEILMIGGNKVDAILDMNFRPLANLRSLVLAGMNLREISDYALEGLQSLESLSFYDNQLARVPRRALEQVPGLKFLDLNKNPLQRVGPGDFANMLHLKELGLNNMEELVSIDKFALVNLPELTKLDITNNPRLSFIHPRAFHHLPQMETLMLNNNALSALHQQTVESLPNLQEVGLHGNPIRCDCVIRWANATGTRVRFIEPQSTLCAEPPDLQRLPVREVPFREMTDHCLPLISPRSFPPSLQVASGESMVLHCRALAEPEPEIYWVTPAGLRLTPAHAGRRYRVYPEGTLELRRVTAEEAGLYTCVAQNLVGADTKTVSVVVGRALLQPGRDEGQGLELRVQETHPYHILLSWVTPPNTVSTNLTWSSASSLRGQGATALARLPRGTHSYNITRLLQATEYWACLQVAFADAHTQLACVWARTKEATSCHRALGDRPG
UniProt P06756, residues 31-992: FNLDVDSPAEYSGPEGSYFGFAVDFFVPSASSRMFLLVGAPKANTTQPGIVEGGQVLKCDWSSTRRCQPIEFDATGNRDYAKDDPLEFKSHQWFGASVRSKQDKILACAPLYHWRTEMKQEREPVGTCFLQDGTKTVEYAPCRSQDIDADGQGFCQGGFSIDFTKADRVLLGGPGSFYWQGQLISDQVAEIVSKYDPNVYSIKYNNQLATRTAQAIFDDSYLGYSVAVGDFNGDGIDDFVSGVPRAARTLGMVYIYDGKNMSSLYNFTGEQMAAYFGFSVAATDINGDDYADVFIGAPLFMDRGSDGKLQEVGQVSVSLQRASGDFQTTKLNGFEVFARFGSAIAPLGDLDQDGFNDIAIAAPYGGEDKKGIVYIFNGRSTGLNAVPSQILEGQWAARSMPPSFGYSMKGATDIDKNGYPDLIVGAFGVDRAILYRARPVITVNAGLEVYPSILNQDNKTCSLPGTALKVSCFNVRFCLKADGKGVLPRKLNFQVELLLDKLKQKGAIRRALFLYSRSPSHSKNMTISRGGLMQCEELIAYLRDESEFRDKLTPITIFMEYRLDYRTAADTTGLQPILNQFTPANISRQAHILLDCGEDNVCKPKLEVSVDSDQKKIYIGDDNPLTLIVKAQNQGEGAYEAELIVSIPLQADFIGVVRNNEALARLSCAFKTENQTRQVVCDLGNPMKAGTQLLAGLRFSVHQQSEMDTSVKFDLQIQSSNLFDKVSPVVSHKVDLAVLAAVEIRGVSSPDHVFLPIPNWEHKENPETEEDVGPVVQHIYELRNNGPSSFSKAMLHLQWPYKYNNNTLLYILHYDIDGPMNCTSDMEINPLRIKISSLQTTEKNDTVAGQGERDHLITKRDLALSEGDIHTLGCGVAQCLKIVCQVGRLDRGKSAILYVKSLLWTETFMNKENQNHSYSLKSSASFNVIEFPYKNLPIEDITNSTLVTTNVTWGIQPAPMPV
UniProt Q9Y6N7, residues 26-897: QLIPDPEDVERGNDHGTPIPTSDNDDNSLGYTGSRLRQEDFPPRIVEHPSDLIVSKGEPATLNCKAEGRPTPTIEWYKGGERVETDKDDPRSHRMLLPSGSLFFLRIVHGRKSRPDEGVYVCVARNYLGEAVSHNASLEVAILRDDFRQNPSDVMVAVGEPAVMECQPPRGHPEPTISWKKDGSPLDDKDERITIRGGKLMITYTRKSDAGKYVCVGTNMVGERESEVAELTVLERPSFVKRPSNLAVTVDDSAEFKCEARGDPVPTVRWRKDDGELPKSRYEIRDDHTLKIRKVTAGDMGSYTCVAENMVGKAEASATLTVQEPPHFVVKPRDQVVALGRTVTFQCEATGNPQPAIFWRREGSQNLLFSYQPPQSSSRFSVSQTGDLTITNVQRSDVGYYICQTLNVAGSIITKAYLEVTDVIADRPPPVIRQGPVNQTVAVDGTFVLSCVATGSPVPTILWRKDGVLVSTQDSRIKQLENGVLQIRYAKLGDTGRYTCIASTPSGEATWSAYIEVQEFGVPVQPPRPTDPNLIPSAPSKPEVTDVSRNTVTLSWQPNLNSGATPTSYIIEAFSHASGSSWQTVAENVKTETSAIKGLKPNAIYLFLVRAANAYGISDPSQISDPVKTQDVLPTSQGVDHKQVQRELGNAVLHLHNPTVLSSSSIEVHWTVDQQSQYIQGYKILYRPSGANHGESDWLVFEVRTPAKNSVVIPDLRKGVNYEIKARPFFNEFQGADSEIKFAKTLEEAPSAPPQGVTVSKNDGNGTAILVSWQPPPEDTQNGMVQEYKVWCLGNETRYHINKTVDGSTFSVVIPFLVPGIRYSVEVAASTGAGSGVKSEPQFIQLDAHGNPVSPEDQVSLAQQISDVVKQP
UniProt Q9UPZ6, residues 48-1607: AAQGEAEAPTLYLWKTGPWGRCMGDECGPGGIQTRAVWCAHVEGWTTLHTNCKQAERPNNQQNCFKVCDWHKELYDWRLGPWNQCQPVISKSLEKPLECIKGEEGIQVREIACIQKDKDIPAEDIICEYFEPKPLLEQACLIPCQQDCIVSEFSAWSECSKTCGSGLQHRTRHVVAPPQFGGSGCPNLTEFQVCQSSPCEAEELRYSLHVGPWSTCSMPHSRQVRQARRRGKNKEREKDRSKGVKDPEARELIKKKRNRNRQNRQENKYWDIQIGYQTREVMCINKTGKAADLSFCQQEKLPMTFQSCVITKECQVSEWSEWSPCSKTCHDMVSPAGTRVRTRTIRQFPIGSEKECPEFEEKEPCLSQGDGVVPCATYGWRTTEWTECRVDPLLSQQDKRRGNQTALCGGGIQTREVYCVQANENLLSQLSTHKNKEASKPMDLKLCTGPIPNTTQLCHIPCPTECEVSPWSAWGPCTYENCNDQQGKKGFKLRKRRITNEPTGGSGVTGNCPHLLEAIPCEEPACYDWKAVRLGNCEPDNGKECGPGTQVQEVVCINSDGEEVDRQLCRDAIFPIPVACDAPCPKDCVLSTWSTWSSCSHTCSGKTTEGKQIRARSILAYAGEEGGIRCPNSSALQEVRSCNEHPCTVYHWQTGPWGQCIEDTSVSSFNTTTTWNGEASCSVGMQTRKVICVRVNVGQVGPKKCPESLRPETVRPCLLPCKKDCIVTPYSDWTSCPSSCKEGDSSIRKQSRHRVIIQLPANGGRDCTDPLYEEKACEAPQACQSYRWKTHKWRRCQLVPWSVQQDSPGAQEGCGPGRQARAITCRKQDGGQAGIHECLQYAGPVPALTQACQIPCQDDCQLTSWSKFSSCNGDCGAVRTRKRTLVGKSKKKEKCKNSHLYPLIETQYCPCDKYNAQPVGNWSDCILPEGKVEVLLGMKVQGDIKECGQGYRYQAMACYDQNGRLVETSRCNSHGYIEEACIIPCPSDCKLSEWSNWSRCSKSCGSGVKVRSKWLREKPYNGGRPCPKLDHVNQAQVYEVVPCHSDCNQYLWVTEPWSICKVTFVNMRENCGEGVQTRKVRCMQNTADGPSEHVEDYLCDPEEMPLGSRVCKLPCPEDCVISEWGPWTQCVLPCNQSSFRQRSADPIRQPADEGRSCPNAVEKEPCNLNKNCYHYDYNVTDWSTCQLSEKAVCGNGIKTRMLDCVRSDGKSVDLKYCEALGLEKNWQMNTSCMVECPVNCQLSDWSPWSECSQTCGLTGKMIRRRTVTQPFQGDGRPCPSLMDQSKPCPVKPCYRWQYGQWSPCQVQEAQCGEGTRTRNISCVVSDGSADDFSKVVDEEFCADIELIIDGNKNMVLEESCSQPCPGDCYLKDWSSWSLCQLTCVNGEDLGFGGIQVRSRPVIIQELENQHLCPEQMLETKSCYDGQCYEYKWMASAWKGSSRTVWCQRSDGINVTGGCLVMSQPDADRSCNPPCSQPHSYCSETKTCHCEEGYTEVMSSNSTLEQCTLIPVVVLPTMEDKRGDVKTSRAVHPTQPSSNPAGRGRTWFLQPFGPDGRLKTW
UniProt Q8IZJ1, residues 27-377: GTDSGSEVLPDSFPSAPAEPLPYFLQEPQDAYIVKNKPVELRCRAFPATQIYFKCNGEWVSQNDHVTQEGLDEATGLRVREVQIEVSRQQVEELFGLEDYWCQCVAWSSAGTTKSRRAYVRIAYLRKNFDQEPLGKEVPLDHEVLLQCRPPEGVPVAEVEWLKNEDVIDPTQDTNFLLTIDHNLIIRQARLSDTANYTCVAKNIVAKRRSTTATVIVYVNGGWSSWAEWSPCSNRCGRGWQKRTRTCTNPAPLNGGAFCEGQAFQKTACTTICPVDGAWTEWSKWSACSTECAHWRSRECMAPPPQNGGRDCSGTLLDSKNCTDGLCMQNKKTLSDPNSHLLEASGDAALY

First the molecules themselves.
B1: ALCAM ectodomain fused to an Fc domain (Fc fusion, UniProt Q13740 28-527)
chain: WYTVNSAYGDTIIIPCRLDVPQNLMFGKWKYEKPDGSPVFIAFRSSTKKSVQYDDVPEYKDRLNLSENYTLSISNARISDEKRFVCMLVTEDNVFEAPTIVKVFKQPSKPEIVSKALFLETEQLKKLGDCISEDSYPDGNITWYRNGKVLHPLEGAVVIIFKKEMDPVTQLYTMTSTLEYKTTKADIQMPFTCSVTYYGPSGQKTIHSEQAVFDIYYPTEQVTIQVLPPKNAIKEGDNITLKCLGNGNPPPEEFLFYLPGQPEGIRSSNTYTLTDVRRNATGDYKCSLIDKKSMIASTAITVHYLDLSLNPSGEVTRQIGDALPVSCTISASRNATVVWMKDNIRLRSSPSFSSLHYQDAGNYVCETALQEVEGLKKRESLTLIVEGKPQIKMTKKTDPSGLSKTIICHVEGFPKPAIQWTITGSGSVINQTEESPYINGRYYSKIIISPEENVTLTCTAENQLERTVNSLNVSAISIPEHDEADEISDENREKVNDQAK
B2: CDH6 ectodomain fused to an Fc domain (Fc fusion, UniProt P55285 54-615)
chain: SWMWNQFFLLEEYTGSDYQYVGKLHSDQDRGDGSLKYILSGDGAGDLFIINENTGDIQATKRLDREEKPVYILRAQAINRRTGRPVEPESEFIIKIHDINDNEPIFTKEVYTATVPEMSDVGTFVVQVTATDADDPTYGNSAKVVYSILQGQPYFSVESETGIIKTALLNMDRENREQYQVVIQAKDMGGQMGGLSGTTTVNITLTDVNDNPPRFPQSTYQFKTPESSPPGTPIGRIKASDADVGENAEIEYSITDGEGLDMFDVITDQETQEGIITVKKLLDFEKKKVYTLKVEASNPYVEPRFLYLGPFKDSATVRIVVEDVDEPPVFSKLAYILQIREDAQINTTIGSVTAQDPDAARNPVKYSVDRHTDMDRIFNIDSGNGSIFTSKLLDRETLLWHNITVIATEINNPKQSSRVPLYIKVLDVNDNAPEFAEFYETFVCEKAKADQLIQTLHAVDKDDPYSGHQFSFSLAPEAASGSNFTIQDNKDNTAGILTRKNGYNRHEMSTYLLPVVISDNDYPVQSSTGTVTVRVCACDHHGNMQSCHAEALIHPTGLSTGA

These are yes or no findings as the source states them, for the method shown. Tags and fused reporters may be left off the sequences shown.

The target in this experiment is LRRC37B_ECTO fused with alkaline phosphatase (human) (UniProt Q96QE4). Put plainly: ELISA. On the technique in general: ELISA stands for enzyme-linked immunosorbent assay.
As for “CDH4 ectodomain fused to an Fc domain (from UniProt P55283 170-734) (Fc fusion)”, the binding result is “no binding”.

In the case of “DPP10 ectodomain fused to an Fc domain (from UniProt Q8N608 56-796) (Fc fusion)”, the binding result was “no binding”.

Take “LRRN2 ectodomain fused to an Fc domain (from UniProt O75325 19-630) (Fc fusion)”: the binding result is “no binding”.

Regarding “ITGAV ectodomain fused to an Fc domain (from UniProt P06756 31-992) (Fc fusion)”, the binding result is “no binding”.

“SGCD ectodomain fused to an Fc domain (from UniProt Q92629 57-289) (Fc fusion)”: the binding result is “no binding”.

Turning to “CNTNAP5 ectodomain fused to an Fc domain (from UniProt Q8WYK1 25-1237) (Fc fusion)”, the binding entry is recorded as “no binding”.

For “ROBO1 ectodomain fused to an Fc domain (from UniProt Q9Y6N7 26-897) (Fc fusion)”, the binding result is “no binding”.

With “TENM4 ectodomain fused to an Fc domain (from UniProt Q6N022 367-2769) (Fc fusion)”, the binding result was “no binding”.

For “LRRN1 ectodomain fused to an Fc domain (from UniProt Q6UXK5 26-631) (Fc fusion)”, the binding result is “no binding”.

For “THSD7A ectodomain fused to an Fc domain (from UniProt Q9UPZ6 48-1607) (Fc fusion)”, the binding result was “no binding”.

As for “UNC5B ectodomain fused to an Fc domain (from UniProt Q8IZJ1 27-377) (Fc fusion)”, the binding result is “no binding”.

Turning to B1, the binding result is “no binding”.

For B2, the binding result is “no binding”.
